Source: article PMC2662408
Results are given in words; binding and its absence hold for the method and conditions named. Binding seen in cells or lysates may run through a third protein. A result given as binding can be weak or reduced; the word gives no strength.

Biological target: Woc (Drosophila (endogenous in embryos))
Assay: co-IP; 30 µl nuclear extract of early Drosophila embryos (0–12 h, TRAX) with α-HP1c (2G2), α-Woc or buffer overnight at 4°C in BC200; protein A/G sepharose; washed with BC300; western blotting

B1: HP1c (protein, UniProt Q9VCU6 1-237)
chain: MVKNEPNFVVERIMDKRITSEGKVEYYIKWRGYTSADNTWEPEENCDCPNLIQKFEESRAKSKKRGEKKPKCEEIQKLRGYERGLELAEIVGATDVTGDIKYLVRWQFCDEFDLVPSAQIVEKDPQMLIDYFQKMAPYSRHIAMRMKGVPEELRLAASRTSYPHISSAPVEVPPEVDQSAELAGHLGGIAPQVDQAPQHHAPMDLANDTDDLASVSYSIPVPGVGDIAIDVPMAENQ
**Q.** B1 was tested. Which binding did it give?
**A.** Its binding is “binds”.
